In PubChem BioAssay (NCATS):
This list was built around the results that the source calls inconclusive (neither active nor inactive); the mix of calls is not that of the screen. A potency beside an inconclusive call is a rough fit, not a confirmed value. The source made the active and inactive calls. Calls come from the whole dose curve; as a rule, active = well fitted cell-killing curve with a large enough effect; inconclusive = small, poorly fitted or top-dose-only effect, or effect the other way; inactive = no such curve, though single readings can be large or run the other way.

Test: qHTS of pediatric cancer cell lines to identify multiple opportunities for drug repurposing: Confirmatory screen for OHS-50 cells (AID 1347128);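 note: compound exposure lasted 48 h at 37 degrees C; nearly all actives have a fitted effect of over 55% in size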
Settings: OHS-50 osteosarcoma cells viability; activity change, negative = cytotoxic: at 45.9 µM (top of the series)
Method in brief: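 Cells (500-1,000/well) in growth media were settled 5 h at 37 degrees C, then given compounds for 48 h. Viability was read as CellTiter-Glo luminescence. Primary runs used MIPE at 11 points (0.78 nM-46 µM) and NPC at 8 points (0.59 nM-46 µM); follow-ups used 11 points.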
% is set by controls: 0 for no effect and ±100 for the full control effect; potency is the fitted concentration of half-maximal effect.

Compound	Potency	activity change, negative = cytotoxic
CC(C(C)N1CC(=O)NC(=O)C1)N1CC(=O)NC(=O)C1 (stereo not given)	inactive	–
COc1ccc(-n2nc(C(N)=O)c3c2C(=O)N(c2ccc(N4CCCCC4=O)cc2)CC3)cc1	inactive	–
CC1(C)O[C@@H]2C[C@H]3[C@@H]4C[C@H](F)C5=CC(=O)CC[C@]5(C)[C@H]4[C@@H](O)C[C@]3(C)[C@]2(C(=O)CO)O1	inactive	–
CN(C)c1ccc(C(=C2C=CC(=[N+](C)C)C=C2)c2ccc(N(C)C)cc2)cc1	active: 3.69 µM	–
CC1=C(CC(=O)O)c2cc(F)ccc2C1=Cc1ccc(S(C)=O)cc1 (stereo not given)	inactive	–
CS[C@H]1SC[C@@H]2C(=O)N(C)[C@H](C(C)C)C(=O)OC[C@H](NC(=O)c3cnc4ccccc4n3)C(=O)N[C@H](C)C(=O)N(C)[C@@H]1C(=O)N(C)[C@H](C(C)C)C(=O)OC[C@H](NC(=O)c1cnc3ccccc3n1)C(=O)N[C@H](C)C(=O)N2C	active: 0.0147 µM	–
Cc1ccc(C(=O)N(CCCN)[C@@H](c2nc3cc(Cl)ccc3c(=O)n2Cc2ccccc2)C(C)C)cc1	inconclusive: 0.676 µM [cytotoxic, full curve, poor fit]	–
CCC(C)(C)C(=O)O[C@H]1C[C@@H](C)C=C2C=C[C@H](C)[C@H](CC[C@@H]3C[C@@H](O)CC(=O)O3)[C@H]21	inconclusive: 7.37 µM [cytotoxic, full curve]	–
O=[N+]([O-])c1ccc(O)c2ncccc12	inconclusive: 5.22 µM [cytotoxic, partial curve]	–
CC(=O)OCC(=O)[C@@]12OC(C)(C)O[C@@H]1C[C@H]1[C@@H]3C[C@H](F)C4=CC(=O)C=C[C@]4(C)[C@@]3(F)[C@@H](O)C[C@@]12C	inconclusive: 36.9 µM [cytotoxic, single point]	–
COc1ccc(-c2cc3c(C)nc(N)nc3n(C3CCC(OCCO)CC3)c2=O)cn1 (stereo not given)	inactive	–
CCC[C@H](Nc1nc(-c2ccc(NC(=O)NCC)c(OC)c2)ncc1C)c1cccnc1	active: 0.329 µM	–
CN(C)C(=S)SC(=S)N(C)C	inactive	–
CC[C@@H]1C(=O)N(C)c2cnc(Nc3ccc(C(=O)NC4CCN(C)CC4)cc3OC)nc2N1C1CCCC1	active: 0.0522 µM	–
CC(=O)OCC(=O)[C@@]1(O)[C@H](C)C[C@H]2[C@@H]3CCC4=CC(=O)C=C[C@]4(C)[C@@]3(F)[C@@H](O)C[C@@]21C	inconclusive: 36.9 µM [cytotoxic, single point]	–
CN1CCCC(n2nc(Cc3ccc(Cl)cc3)c3ccccc3c2=O)CC1 (stereo not given)	–	inconclusive: -38.6% [cytotoxic]
CCCCC(=O)O[C@]1(C(=O)CO)CC[C@H]2[C@@H]3CCC4=CC(=O)CC[C@]4(C)[C@H]3[C@@H](O)C[C@@]21C	inactive	–
CC1C(=O)OC2C(O)C34C5CC(C(C)(C)C)C36C(OC(=O)C6O)OC4(C(=O)O5)C12O (stereo not given)	inactive	–

Compound	Potency	activity change, negative = cytotoxic
N=C(N)c1ccc(OCCCCCOc2ccc(C(=N)N)cc2)cc1	inactive	–
COc1cc2ncnc(Nc3cccc(Br)c3)c2cc1OC	active: 10.4 µM	–
CC(C)C[C@H](NC(=O)CNC(=O)c1cc(Cl)ccc1Cl)B1OC(=O)CC(CC(=O)O)(C(=O)O)O1 (stereo not given in full)	active: 0.585 µM	–
CCOC(=O)[C@H](CCc1ccccc1)N[C@H]1CS[C@H](c2cccs2)CN(CC(=O)O)C1=O	inconclusive: 0.0016 µM	–
CCc1cnn2c(NCc3ccc[n+]([O-])c3)cc(N3CCCC[C@@H]3CCO)nc12	inconclusive: 7.37 µM [cytotoxic, single point]	–
CNC(=O)c1ccc(N2C(=S)N(c3cnc(C#N)c(C(F)(F)F)c3)C(=O)C23CCC3)cc1F	inactive	–
COc1cccc2c1C(=O)c1c(O)c3c(c(O)c1C2=O)C[C@@](O)(C(=O)CO)C[C@@H]3O[C@H]1C[C@H](N)[C@H](O)[C@H](C)O1	active: 14.7 µM	–
C[C@@H]1C[C@H]2[C@@H]3C[C@H](F)C4=CC(=O)C(Cl)=C[C@]4(C)[C@@]3(F)[C@@H](O)C[C@]2(C)[C@@]1(O)C(=O)CO	inconclusive: 36.9 µM [cytotoxic, single point]	–
CCOc1cc(N2CCC(O)CC2)ccc1Nc1ncc2c(n1)N(C)c1ccccc1C(=O)N2C	inconclusive: 4.14 µM [cytotoxic, full curve]	–
Cc1nc2cnc3ccc(C#Cc4cccnc4)cc3c2n1-c1ccc(C(C)(C)C#N)cc1	active: 3.39 µM	–
Nc1ncn([C@@H]2O[C@H](CO)[C@@H](O)[C@@H]2O)c(=O)n1	active: 5.85 µM	–
O=C(NCC1CN(c2ccc(N3CCOCC3=O)cc2)C(=O)O1)c1ccc(Cl)s1 (stereo not given)	inconclusive: 36.9 µM [cytotoxic, single point]	–
COc1cc2c(Nc3ccc(Br)cc3F)ncnc2cc1OCC1CCN(C)CC1	inconclusive: 9.27 µM [cytotoxic, partial curve, poor fit]	–
COc1cccc2c1C(=O)c1c(O)c3c(c(O)c1C2=O)C[C@@](O)(C(=O)CO)C[C@H]3O[C@H]1C[C@H](N)[C@H](O)[C@H](C)O1	active: 2.61 µM	–
CC(=O)[C@H]1CC[C@H]2[C@@H]3C[C@H](C)C4=CC(=O)CC[C@]4(C)[C@H]3[C@@H](O)C[C@]12C	inconclusive: 18.5 µM [cytotoxic, partial curve, poor fit]	–
CO[C@@H]1[C@@H](O)[C@H](O)[C@@H](n2c3c(Cl)cccc3c3c4c(c5c6cccc(Cl)c6[nH]c5c32)C(=O)NC4=O)O[C@@H]1CO	active: 2.61 µM	–
CC(C)c1nn(-c2c(Cl)cccc2Cl)c2nc(Cc3ccc(OCCO)cc3)[nH]c(=O)c12	active: 0.104 µM	–

Individual results from the list:
Potency with CNC(=O)c1ccc(N2C(=S)N(c3cnc(C#N)c(C(F)(F)F)c3)C(=O)C23CCC3)cc1F is entered as inactive
Potency with CCOC(=O)[C@H](CCc1ccccc1)N[C@H]1CS[C@H](c2cccs2)CN(CC(=O)O)C1=O is entered as inconclusive: 0.0016 µM
